# Source: the supplement of paper PMC4604168 (melanoma cell lines)
# The list shows a part of the results. Many values rest on one well or one pass, so single values are uncertain.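 The apoptosis fraction was the count of cleaved-PARP antibody-stained nuclei relative to all DNA-stained nuclei, imaged in 1,536-well plates. Screening doses were set so most cells survived, and baseline and induced cleaved-PARP levels vary greatly across cell lines.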
# System: RPMI7951
# Assay: cleaved PARP positive nuclei fraction relative to DMSO control; melanoma cells; higher = more apoptosis
# Settings: library dose: low library concentration; 72 h
row,SMILES,cleaved PARP positive nuclei fraction [%]
1,"CC(=O)c1c(C)c2cnc(Nc3ccc(N4CCNCC4)cn3)nc2n(C2CCCC2)c1=O [palbociclib] + Nc1cccc2c1CN(C1CCC(=O)NC1=O)C2=O [lenalidomide] (first compound 0.04 µM, partner dose 1 µM)",44.5
2,"CC(=O)c1c(C)c2cnc(Nc3ccc(N4CCNCC4)cn3)nc2n(C2CCCC2)c1=O [palbociclib] + COc1ccc(Cl)c(Nc2nc3ccccc3nc2NS(=O)(=O)c2cccc(NC(=O)C(C)(C)N)c2)c1 [XL147] (first compound 0.04 µM, partner dose 0.8 µM)",62
3,"CC(=O)c1c(C)c2cnc(Nc3ccc(N4CCNCC4)cn3)nc2n(C2CCCC2)c1=O [palbociclib] + Cc1nc(Nc2ncc(C(=O)Nc3c(C)cccc3Cl)s2)cc(N2CCN(CCO)CC2)n1 [dasatanib] (first compound 0.04 µM, partner dose 0.004 µM)",78.6
4,"C=CCNC1=C2C[C@@H](C)C[C@H](OC)[C@H](O)[C@@H](C)/C=C(\C)[C@H](OC(N)=O)[C@@H](OC)/C=C\C=C(/C)C(=O)NC(=CC1=O)C2=O [Tanespimycin] + COc1ccc(Cl)c(Nc2nc3ccccc3nc2NS(=O)(=O)c2cccc(NC(=O)C(C)(C)N)c2)c1 [XL147] (first compound 0.002 µM, partner dose 0.8 µM)",117
5,"OCc1c[nH]c2ccccc12 [Indole-3-carbinol] + C#Cc1cccc(Nc2ncnc3cc(OCCOC)c(OCCOC)cc23)c1 [erlotinib] (first compound 0.8 µM, partner dose 0.8 µM)",73.2
